Assay results as given in patent publication US20110178107A1, “HCV PROTEASE INHIBITORS” (TaiGen Biotechnology Co., Ltd., priority 2010, published 2011).
Some results were stated once for a whole list of compounds, not compound by compound. At least one compound was matched to its structure with a doubt left.

Target: T1, NS3/4A protease (Hepatitis C virus genotype 1a, UniProt P27958)
T1 construct: N-terminal His6-tagged-NS4A(21-32)-GSGS-NS3(3-181); made in house; host or cells: E. coli BL21(DE3) pLysS
Experiment: Inhibition of NS3/4A protease activity (HPLC microbore assay)
Assay type: biochemical, HCV
Conditions: 2 nM NS3/4A protease, 30 minutes at 30° C; call rule not given here.

C=C[C@@H]1C[C@]1(NC(=O)[C@@H]1C[C@@H](Oc2nc(-c3ccc(C(F)(F)F)cc3)nc3c2oc2ccccc23)CN1C(=O)[C@@H](Nc1cccc(C(F)(F)F)c1)C(C)(C)C)C(=O)NS(=O)(=O)C1CC1 [Compound 120]
inhibiting NS3/4A activity: active

O=C(N[C@H]1CCCCC/C=C\[C@@H]2C[C@@]2(C(=O)NS(=O)(=O)C2CC2)NC(=O)[C@@H]2C[C@@H](Oc3cc(-c4ccc(Cl)cc4)nc4c5ccccc5nn34)CN2C1=O)OC1CCCC1 [Compound 242]
inhibiting NS3/4A activity: active

O=C(N[C@H]1CCCCC/C=C\[C@@H]2C[C@@]2(C(=O)NS(=O)(=O)C2CC2)NC(=O)[C@@H]2C[C@@H](Oc3cc(-c4ccccc4)nc4c5cc(C(F)(F)F)ccc5nn34)CN2C1=O)OC1CCCC1 [Compound 250]
inhibiting NS3/4A activity: active

O=C(N[C@H]1CCCCC/C=C\[C@@H]2C[C@@]2(C(=O)NS(=O)(=O)C2CC2)NC(=O)[C@@H]2C[C@@H](Oc3cc(-c4ccc(OC(F)(F)F)cc4)nc4c5ccccc5nn34)CN2C1=O)OC1CCCC1 [Compound 232]
inhibiting NS3/4A activity: active

C=C[C@@H]1C[C@]1(NC(=O)[C@@H]1C[C@@H](Oc2nc(-c3ccc(C(F)(F)F)cc3)nc3c2oc2ccccc23)CN1C(=O)[C@@H](Nc1ccc(F)c(F)c1)C1CCCCC1)C(=O)NS(=O)(=O)C1CC1 [Compound 46]
inhibiting NS3/4A activity: active

C=C[C@@H]1C[C@]1(NC(=O)[C@@H]1C[C@@H](Oc2nc(-c3ccc(C(F)(F)F)cc3)nc3c2oc2ccccc23)CN1C(=O)[C@@H](Nc1nc(C(=O)N2CCCC2)cs1)C(C)C)C(=O)NS(=O)(=O)C1CC1 [Compound 71]
inhibiting NS3/4A activity: active

CC(C)Oc1ccc(-c2nc(O[C@@H]3C[C@H]4C(=O)N[C@]5(C(=O)NS(=O)(=O)C6CC6)C[C@H]5/C=C\CCCCC[C@H](Nc5ccc(F)cc5)C(=O)N4C3)c3oc4ccccc4c3n2)cc1 [Compound 209, (2R,6S,13aS,14aR,16aS,Z)—N-(cyclopropylsulfonyl)-6-(4-fluorophenylamino)-2-(2-(4-isopropoxyphenyl)benzofuro[3,2-d]pyrimidin-4-yloxy)-5,16-dioxo-1,2,3,5,6,7,8,9,10,11,13a,14,14a,15,16,16a-hexadecahydrocyclopropa[e]pyrrolo[1,2-a][1,4]diazacyclopentadecine-14a-carboxamide]
inhibiting NS3/4A activity: active

C=C[C@@H]1C[C@]1(NC(=O)[C@@H]1C[C@@H](Oc2nc(-c3ccc(C(F)(F)F)cc3)nc3c2oc2ccccc23)CN1C(=O)[C@@H](Nc1nc(C(=O)O)cs1)C(C)(C)C)C(=O)NS(=O)(=O)C1CC1 [Compound 53]
inhibiting NS3/4A activity: active

C=C[C@@H]1C[C@]1(NC(=O)[C@@H]1C[C@@H](Oc2nc(-c3ccc(C(F)(F)F)cc3)nc3c2oc2ccccc23)CN1C(=O)[C@@H](Nc1nc(C(C)(C)C)cs1)C(C)C)C(=O)NS(=O)(=O)C1CC1 [Compound 5]
inhibiting NS3/4A activity: active

O=C(N[C@H]1CCCCC/C=C\[C@@H]2C[C@@]2(C(=O)NS(=O)(=O)C2CC2)NC(=O)[C@@H]2C[C@@H](Oc3cc(-c4cnccn4)nc4c5ccccc5nn34)CN2C1=O)OC1CCCC1 [Compound 273]
inhibiting NS3/4A activity: active

C=C[C@@H]1C[C@]1(NC(=O)[C@@H]1C[C@@H](Oc2nc(-c3ccc(C(C)(C)C)cc3)nc3c2oc2cccnc23)CN1C(=O)[C@@H](Nc1nc(C)c(C(=O)OC)s1)C(C)(C)C)C(=O)NS(=O)(=O)C1CC1 [Compound 93]
inhibiting NS3/4A activity: active

C=C[C@@H]1C[C@]1(NC(=O)[C@@H]1C[C@@H](Oc2nc(-c3cnccn3)nc3c2oc2ccccc23)CN1C(=O)[C@@H](Nc1nc(C)c(C(=O)OC)s1)C(C)(C)C)C(=O)NS(=O)(=O)C1CC1 [Compound 182]
inhibiting NS3/4A activity: active

C=C[C@@H]1C[C@]1(NC(=O)[C@@H]1C[C@@H](Oc2nc(-c3ccc(OC(C)C)cc3)nc3c2oc2ccc(F)cc23)CN1C(=O)[C@@H](Nc1ccc(C#N)cc1)C(C)(C)C)C(=O)NS(=O)(=O)C1CC1 [Compound 158]
inhibiting NS3/4A activity: active

C=C[C@@H]1C[C@]1(NC(=O)[C@@H]1C[C@@H](Oc2nc(-c3ccc(OC(C)C)cc3)nc3c2sc2ccccc23)CN1C(=O)[C@@H](Nc1nc(C)c(C)s1)C(C)(C)C)C(=O)NS(=O)(=O)C1CC1 [Compound 138]
inhibiting NS3/4A activity: active

C=C[C@@H]1C[C@]1(NC(=O)[C@@H]1C[C@@H](Oc2nc(-c3ccc(C(F)(F)F)cc3)nc3c2oc2ccccc23)CN1C(=O)[C@@H](Nc1nc2c(s1)CCC2)C(C)(C)C)C(=O)NS(=O)(=O)C1CC1 [Compound 47]
inhibiting NS3/4A activity: active

COc1ccccc1-c1cc(O[C@@H]2C[C@H]3C(=O)N[C@]4(C(=O)NS(=O)(=O)C5CC5)C[C@H]4/C=C\CCCCC[C@H](NC(=O)OC4CCCC4)C(=O)N3C2)n2nc3ccccc3c2n1 [Compound 231]
inhibiting NS3/4A activity: active

CCc1csc(N[C@H]2CCCCC/C=C\[C@@H]3C[C@@]3(C(=O)NS(=O)(=O)C3CC3)NC(=O)[C@@H]3C[C@@H](Oc4nc(-c5ccc(C(F)(F)F)cc5)nc5c4oc4ccccc45)CN3C2=O)n1 [Compound 184]
inhibiting NS3/4A activity: active

C=C[C@@H]1C[C@]1(NC(=O)[C@@H]1C[C@@H](Oc2nc(-c3ccc(C(F)(F)F)cc3)nc3c2oc2ccccc23)CN1C(=O)[C@@H](Nc1cccc(C(=O)NC(C)C)c1)C(C)(C)C)C(=O)NS(=O)(=O)C1CC1 [Compound 83]
inhibiting NS3/4A activity: active

Cc1csc(N[C@H]2CCCCC/C=C\[C@@H]3C[C@@]3(C(=O)NS(=O)(=O)C3CC3)NC(=O)[C@@H]3C[C@@H](Oc4nc(-c5ccc(C(F)(F)F)cc5)nc5c4oc4ccccc45)CN3C2=O)n1 [Compound 189]
inhibiting NS3/4A activity: active

C=C[C@@H]1C[C@]1(NC(=O)[C@@H]1C[C@@H](Oc2nc(-c3ccc(C(F)(F)F)cc3)nc3c2oc2ccccc23)CN1C(=O)[C@@H](Nc1ccc(Cl)cc1F)C(C)(C)C)C(=O)NS(=O)(=O)C1CC1 [Compound 44]
inhibiting NS3/4A activity: active

C=C[C@@H]1C[C@]1(NC(=O)[C@@H]1C[C@@H](Oc2nc(-c3ccc(C(F)(F)F)cc3)nc3c2oc2ccccc23)CN1C(=O)[C@@H](Nc1nc(C)c(C(=O)OC)s1)C(C)(C)C)C(=O)NS(=O)(=O)C1CC1 [Compound 74]
inhibiting NS3/4A activity: active

C=C[C@@H]1C[C@]1(NC(=O)[C@@H]1C[C@@H](Oc2nc(-c3ccc(C(F)(F)F)cc3)nc3c2oc2ccccc23)CN1C(=O)[C@@H](Nc1nccc(Cl)n1)C(C)C)C(=O)NS(=O)(=O)C1CC1 [Compound 10]
inhibiting NS3/4A activity: active

C=C[C@@H]1C[C@]1(NC(=O)[C@@H]1C[C@@H](Oc2nc(-c3ccc(C(F)(F)F)cc3)nc3c2oc2ccccc23)CN1C(=O)[C@@H](Nc1cccc(C#N)c1)C(C)(C)C)C(=O)NS(=O)(=O)C1CC1 [Compound 65]
inhibiting NS3/4A activity: active

CCCc1cc(O[C@@H]2C[C@H]3C(=O)N[C@]4(C(=O)NS(=O)(=O)C5CC5)C[C@H]4/C=C\CCCCC[C@H](NC(=O)OC4CCCC4)C(=O)N3C2)n2nc3ccccc3c2n1 [Compound 285]
inhibiting NS3/4A activity: active

COc1cccc2nn3c(O[C@@H]4C[C@H]5C(=O)N[C@]6(C(=O)NS(=O)(=O)C7CC7)C[C@H]6/C=C\CCCCC[C@H](NC(=O)OC6CCCC6)C(=O)N5C4)cc(-c4ccccc4)nc3c12 [Compound 255]
inhibiting NS3/4A activity: active

C=C[C@@H]1C[C@]1(NC(=O)[C@@H]1C[C@@H](Oc2nc(-c3ccc(C(F)(F)F)cc3)nc3c2oc2ccccc23)CN1C(=O)[C@@H]1Cc2ccccc2N1)C(=O)NS(=O)(=O)C1CC1 [Compound 15]
inhibiting NS3/4A activity: active

C=C[C@@H]1C[C@]1(NC(=O)[C@@H]1C[C@@H](Oc2nc(-c3ccc(C(F)(F)F)cc3)nc3c2oc2ccccc23)CN1C(=O)[C@@H](Nc1nc(C(=O)NCC)cs1)C(C)C)C(=O)NS(=O)(=O)C1CC1 [Compound 69]
inhibiting NS3/4A activity: active

O=C(N[C@H]1CCCCC/C=C\[C@@H]2C[C@@]2(C(=O)NS(=O)(=O)C2CC2)NC(=O)[C@@H]2C[C@@H](Oc3cc(-c4ccc(C(F)(F)F)cc4)nc4c5ccccc5nn34)CN2C1=O)OC1CCCC1 [Compound 237]
inhibiting NS3/4A activity: active

O=C1N[C@]2(C(=O)NS(=O)(=O)C3CC3)C[C@H]2/C=C\CCCCCCC(=O)N2C[C@H](Oc3cc(-c4ccccc4)nc4c5cccc(C(F)(F)F)c5nn34)C[C@@H]12 [Compound 297]
inhibiting NS3/4A activity: active

C=C[C@@H]1C[C@]1(NC(=O)[C@@H]1C[C@@H](Oc2nc(-c3ccc(Cl)s3)nc3c2oc2ccccc23)CN1C(=O)[C@@H](Nc1ccc(F)cc1)C(C)(C)C)C(=O)NS(=O)(=O)C1CC1 [Compound 179]
inhibiting NS3/4A activity: active

C=C[C@@H]1C[C@]1(NC(=O)[C@@H]1C[C@@H](Oc2nc(-c3ccc(OC(C)C)cc3)nc3c2oc2ccccc23)CN1C(=O)[C@@H](Nc1nc(C(=O)NC)cs1)C(C)(C)C)C(=O)NS(=O)(=O)C1CC1 [Compound 105]
inhibiting NS3/4A activity: active

C=C[C@@H]1C[C@]1(NC(=O)[C@@H]1C[C@@H](Oc2nc(-c3ccc(C(F)(F)F)cc3)nc3c2oc2ccccc23)CN1C(=O)[C@@H](Nc1cccc(C(=O)NC)c1)C(C)(C)C)C(=O)NS(=O)(=O)C1CC1 [Compound 82]
inhibiting NS3/4A activity: active

C=C[C@@H]1C[C@]1(NC(=O)[C@@H]1C[C@@H](Oc2nc(-c3ccc(C(F)(F)F)cc3)nc3c2sc2ccccc23)CN1C(=O)[C@@H](Nc1cccc(C(F)(F)F)c1)C(C)(C)C)C(=O)NS(=O)(=O)C1CC1 [Compound 121]
inhibiting NS3/4A activity: active

C=C[C@@H]1C[C@]1(NC(=O)[C@@H]1C[C@@H](Oc2nc(-c3ccc(C(F)(F)F)cc3)nc3c2oc2ccccc23)CN1C(=O)[C@@H](Nc1ccc(C#N)cc1)C(C)(C)C)C(=O)NS(=O)(=O)C1CC1 [Compound 64, (2S,4R)-1-((S)-2-(4-cyanophenylamino)-3,3-dimethylbutanoyl)-N-((1R,2S)-1-(cyclopropylsulfonylcarbamoyl)-2-vinylcyclopropyl)-4-(2-(4-(trifluoromethyl)phenyl)benzofuro[3,2-d]pyrimidin-4-yloxy)pyrrolidine-2-carboxamide]
inhibiting NS3/4A activity: active

C=C[C@@H]1C[C@]1(NC(=O)[C@@H]1C[C@@H](Oc2nc(-c3ccc(OC(C)C)cc3)nc3c2oc2ccc(F)cc23)CN1C(=O)[C@@H](Nc1nc2c(s1)CCC2)C(C)(C)C)C(=O)NS(=O)(=O)C1CC1 [Compound 148]
inhibiting NS3/4A activity: active
